Among the data in patent US20240402193A1 are binding values, retold here.

Sequences of proteins named here, by UniProt entry; tags and fusion partners are left off. A change or cut given only in a name is not applied to a line headed by its entry.
UniProt P10636: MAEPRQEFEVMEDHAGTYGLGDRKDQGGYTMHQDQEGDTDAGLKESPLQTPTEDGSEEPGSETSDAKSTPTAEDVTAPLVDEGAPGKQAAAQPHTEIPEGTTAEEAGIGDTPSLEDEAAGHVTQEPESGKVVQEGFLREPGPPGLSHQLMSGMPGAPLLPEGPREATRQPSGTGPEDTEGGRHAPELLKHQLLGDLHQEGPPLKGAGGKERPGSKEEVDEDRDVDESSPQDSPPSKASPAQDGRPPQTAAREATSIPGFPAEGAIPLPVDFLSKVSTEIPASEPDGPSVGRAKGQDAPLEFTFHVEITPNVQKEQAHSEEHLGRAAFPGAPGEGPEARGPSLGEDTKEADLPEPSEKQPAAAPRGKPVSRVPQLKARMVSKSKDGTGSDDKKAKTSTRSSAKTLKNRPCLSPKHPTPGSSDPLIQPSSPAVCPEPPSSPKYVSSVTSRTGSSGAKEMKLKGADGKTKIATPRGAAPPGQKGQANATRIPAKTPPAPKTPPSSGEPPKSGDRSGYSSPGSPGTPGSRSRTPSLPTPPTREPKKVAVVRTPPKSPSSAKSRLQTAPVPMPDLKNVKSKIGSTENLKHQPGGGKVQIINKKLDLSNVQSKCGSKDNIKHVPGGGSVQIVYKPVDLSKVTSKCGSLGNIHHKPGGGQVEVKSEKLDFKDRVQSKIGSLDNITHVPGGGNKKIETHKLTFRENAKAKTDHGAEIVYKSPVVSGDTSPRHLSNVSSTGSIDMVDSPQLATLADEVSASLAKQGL

In this assay the target is purified recombinant tau protein (positive control) (human) (UniProt P10636). Put plainly: sandwich lateral flow immunoassay, AB 6-18 immobilised on the test line, AB 157-168 on 150 nm gold nano-shells (FIG. 8A).

These are yes or no findings as the source states them, for the method shown. Some results given as binding are weak or reduced against the parent protein; the word gives no strength.

B1: anti-tau antibody that binds to epitope 6-18 (AB 6-18) (antibody, mouse IgG1, kappa, V domains shown)
VH: EVQLVESGEDLVKPGGSLKLSCVASGFAFSSYGMSWVRQTPDMRLEWVATISSSGSRTYFPDSVKGRLTISRDNDKNILYLQMSSLRSEDTAMYYCTITWDGAMDYWGRGISVTVSS
VL: DVLMTQTPLSLAVNLGDQASLSCRSSQTILHSNGNTYLEWYLQKPGQSPRLLIYKVSKRFSGVPDRFSGSGSGTDFTLKISRVEADDLGIYYCFQGSLVPWAFGGGTKLEIKR
For the molecule B1, the binding entry was “binds”.
